Results taken from patent US20180057602A1.
Results are given in words; binding and its absence hold for the method and conditions named. Some binding calls cover weakened binding; strength is not graded here.

Experiments:
[1] = biological target: T1, human endoglin (CD105) (human) (UniProt P17813); experiment: immunohistochemistry, reactivity grade (0, +, ++, +++), breast tumor, 21 specimens
T1 sequence (looked up): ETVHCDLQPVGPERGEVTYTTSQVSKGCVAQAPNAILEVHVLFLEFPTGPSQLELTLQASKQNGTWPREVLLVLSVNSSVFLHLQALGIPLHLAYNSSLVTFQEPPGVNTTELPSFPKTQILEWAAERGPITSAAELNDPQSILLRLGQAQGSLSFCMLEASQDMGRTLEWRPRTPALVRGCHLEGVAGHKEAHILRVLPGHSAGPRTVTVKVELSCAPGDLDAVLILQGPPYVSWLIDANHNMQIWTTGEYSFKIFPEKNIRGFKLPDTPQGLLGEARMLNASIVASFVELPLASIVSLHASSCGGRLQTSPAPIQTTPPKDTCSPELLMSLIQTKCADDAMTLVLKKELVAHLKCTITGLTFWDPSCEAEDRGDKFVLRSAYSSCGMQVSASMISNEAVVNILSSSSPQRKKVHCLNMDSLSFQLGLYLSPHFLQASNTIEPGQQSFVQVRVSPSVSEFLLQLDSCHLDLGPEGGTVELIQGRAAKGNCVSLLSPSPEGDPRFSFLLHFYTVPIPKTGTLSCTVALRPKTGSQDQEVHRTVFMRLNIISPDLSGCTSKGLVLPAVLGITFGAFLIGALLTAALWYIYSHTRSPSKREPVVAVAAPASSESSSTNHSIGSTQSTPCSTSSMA

[2] = biological target: T1, human endoglin (CD105) (human); experiment: immunohistochemistry, reactivity grade (0, +, ++, +++), thyroid tumor, 3 specimens
[3] = biological target: T1, human endoglin (CD105) (human); experiment: immunohistochemistry, reactivity grade (0, +, ++, +++), liver tumor, 1 specimen
[4] = biological target: T1, human endoglin (CD105) (human); experiment: immunohistochemistry, reactivity grade (0, +, ++, +++), lymphoma, 7 specimens
[5] = biological target: T1, human endoglin (CD105) (human); experiment: immunohistochemistry, reactivity grade (0, +, ++, +++), stomach tumor, 2 specimens
[6] = biological target: T1, human endoglin (CD105) (human); experiment: immunohistochemistry, reactivity grade (0, +, ++, +++), ovary tumor, 2 specimens
[7] = biological target: T1, human endoglin (CD105) (human); experiment: immunohistochemistry on frozen, acetone-fixed human carcinoma samples, 10,000-fold dilution of ascites
[8] = biological target: T1, human endoglin (CD105) (human); experiment: immunohistochemistry, reactivity grade (0, +, ++, +++), bone tumor, 1 specimen
[9] = biological target: T1, human endoglin (CD105) (human); experiment: immunohistochemistry, reactivity grade (0, +, ++, +++), esophagus tumor, 1 specimen
[10] = biological target: T1, human endoglin (CD105) (human); experiment: immunohistochemistry, reactivity grade (0, +, ++, +++), colon tumor, 4 specimens
[11] = biological target: T1, human endoglin (CD105) (human); experiment: immunohistochemistry, reactivity grade (0, +, ++, +++), penis tumor, 1 specimen
[12] = biological target: T1, human endoglin (CD105) (human); experiment: immunohistochemistry, reactivity grade (0, +, ++, +++), bladder tumor, 2 specimens
[13] = biological target: T1, human endoglin (CD105) (human); experiment: immunohistochemistry, reactivity grade (0, +, ++, +++), lung tumor, 3 specimens
[14] = biological target: T1, human endoglin (CD105) (human); experiment: immunohistochemistry, reactivity grade (0, +, ++, +++), pancreas tumor, 1 specimen
[15] = biological target: T1, human endoglin (CD105) (human); experiment: immunohistochemistry, reactivity grade (0, +, ++, +++), rectum tumor, 2 specimens

binding [1]: binds | binding [2]: binds | binding [3]: binds | binding [4]: binds | binding [5]: binds | binding [6]: binds | binding [7]: binds | binding [8]: binds | binding [9]: binds | binding [10]: binds | binding [11]: binds | binding [12]: binds | binding [13]: binds | binding [14]: binds | binding [15]: binds
B1: anti-endoglin antibody SN6j (antibody, V domains shown)
VH: EVKLEESGGGLVQPGGSMKLSCAASGFTFSDAWMDWVRQSPEKGLEWVAEIRSKASNHATYYAESVKGRFTISRDDSKSSVYLQMNSLRAEDTGIYYCTRWRRFFDSWGQGTTLTVSS
VL: QIVLSQSPAILSASPGEKVTMTCRASSSVSYMHWYQQKPGSSPKPWIYATSNLASGVPVRFSGSGSGTSYSLTISRVEAEDAATYYCQQWSSNPLTFGAGTKLELK
